Measured values reported in US5677283A, “α-heteroaryloxymethyl ketones as interleukin - 1 β converting enzyme inhibitors” (Sanofi, priority 1996, dated 1997).
pIC50: −log10 of the molar value. Some entries share one result that the patent states for a list of compounds. At least one compound was matched to its structure with a doubt left.

Biological target: T1, IL-1β protease (Homo sapiens, UniProt P29466)
T1 sequence (P29466 120-297 limits assumed): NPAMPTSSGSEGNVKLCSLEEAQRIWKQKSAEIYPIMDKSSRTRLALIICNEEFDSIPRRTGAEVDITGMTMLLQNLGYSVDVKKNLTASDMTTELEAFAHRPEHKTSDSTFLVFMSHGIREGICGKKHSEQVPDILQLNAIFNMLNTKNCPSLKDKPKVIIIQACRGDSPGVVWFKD
T1 sequence (P29466 317-404 limits assumed): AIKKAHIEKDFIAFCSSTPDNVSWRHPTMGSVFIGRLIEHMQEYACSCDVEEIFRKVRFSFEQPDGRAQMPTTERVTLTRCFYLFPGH
Experiment: IL-1β protease inhibition assay (HPLC, TRITC-AYVHDAPVRS-NH2 substrate)
Assay type: biochemical
Details: partially purified enzyme; 15 min preincubation with inhibitor at 37° C.; substrate 67 μM; 60 minutes at 37° C.

Row | Compound | pIC50
1 | CC(C)[C@H](NC(=O)c1ccc(CN(C)C)cc1)C(=O)N[C@@H](CC(=O)O)C(=O)COc1cc(C(F)(F)F)nn1-c1ccccc1 [Example 1] | > 5.00
2 | CC(C)[C@H](NC(=O)C1CC2CCN1CC2)C(=O)N[C@@H](C)C(=O)N[C@@H](CC(=O)O)C(=O)COc1cc(C(F)(F)F)nn1-c1ccccc1 (stereo partly drawn) [Example 32, N-2-(quinuclidinyl)carbonyl-L-valine-L-alanine-L-aspartic acid 5-(1-phenyl-3-trifluoromethyl)pyrazolyloxymethyl ketone] | > 5.00
